Results: paper PMC4990744
These are yes or no findings as the source states them, for the method shown. In cells and extracts the contact can be indirect. Some binding calls cover weakened binding; strength is not graded here.

Sequences of proteins named here, by UniProt entry; tags and fusion partners are left off.
UniProt O88275: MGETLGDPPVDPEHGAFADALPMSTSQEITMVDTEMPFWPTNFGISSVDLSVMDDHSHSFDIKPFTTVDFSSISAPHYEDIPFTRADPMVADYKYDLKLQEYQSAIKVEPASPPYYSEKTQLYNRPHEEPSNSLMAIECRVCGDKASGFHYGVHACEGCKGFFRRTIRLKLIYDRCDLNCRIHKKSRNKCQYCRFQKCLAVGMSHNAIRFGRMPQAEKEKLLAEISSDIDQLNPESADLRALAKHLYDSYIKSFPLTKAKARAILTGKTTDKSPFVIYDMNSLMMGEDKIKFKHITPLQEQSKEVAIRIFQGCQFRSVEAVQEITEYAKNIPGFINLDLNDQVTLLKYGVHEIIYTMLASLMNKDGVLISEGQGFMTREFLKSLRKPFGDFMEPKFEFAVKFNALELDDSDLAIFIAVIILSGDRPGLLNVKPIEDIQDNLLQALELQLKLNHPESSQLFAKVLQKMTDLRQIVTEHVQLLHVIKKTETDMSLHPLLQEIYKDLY
UniProt Q7TQN4: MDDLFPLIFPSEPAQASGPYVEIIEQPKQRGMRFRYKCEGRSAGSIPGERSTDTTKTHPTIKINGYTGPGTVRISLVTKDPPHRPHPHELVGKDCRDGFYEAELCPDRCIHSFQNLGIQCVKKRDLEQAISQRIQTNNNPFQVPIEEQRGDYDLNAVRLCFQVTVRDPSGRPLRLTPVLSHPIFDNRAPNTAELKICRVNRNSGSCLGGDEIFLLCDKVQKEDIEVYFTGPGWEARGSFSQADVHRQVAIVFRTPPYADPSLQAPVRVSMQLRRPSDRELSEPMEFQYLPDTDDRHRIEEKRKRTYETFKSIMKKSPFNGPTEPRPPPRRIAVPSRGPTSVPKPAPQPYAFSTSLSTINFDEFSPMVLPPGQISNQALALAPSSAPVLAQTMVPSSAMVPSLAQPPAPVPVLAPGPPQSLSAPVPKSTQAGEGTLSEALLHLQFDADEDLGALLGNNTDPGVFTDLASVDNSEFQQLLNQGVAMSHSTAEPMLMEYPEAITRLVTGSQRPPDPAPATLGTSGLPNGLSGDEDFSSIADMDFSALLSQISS

Biological target: peroxisome proliferator-activated receptor gamma (rat (endogenous in primary hippocampal neuronal/glial cultures)) (UniProt O88275)
Assay: co-IP; PPARγ antibody immobilised on antibody coupling gel (Pierce Co-IP kit); nuclear extracts (300 μg protein) of primary mixed neuronal/glial cultures incubated 2 h; blot with NF-κB or PPARγ antibody; cells stimulated with Aβ1-42 25 μM, pre-treated with curcumin 10 μM, with or without GW9662 1 μM or PPARγ siRNA

NF-κB p65 subunit (from UniProt Q7TQN4 1-550)
binding: binds
